In paper PMC12146697:
Results are given in words; binding and its absence hold for the method and conditions named. For some of these results: A result given as binding can be weak or reduced; the word gives no strength. Where a sequence is shown, tags or fusion partners need not be part of it.

The chains behind the UniProt entries cited, without tags or fusion partners. Where a name states a change or a piece, a line headed by the entry shows the natural chain unless it says otherwise.
UniProt P61026: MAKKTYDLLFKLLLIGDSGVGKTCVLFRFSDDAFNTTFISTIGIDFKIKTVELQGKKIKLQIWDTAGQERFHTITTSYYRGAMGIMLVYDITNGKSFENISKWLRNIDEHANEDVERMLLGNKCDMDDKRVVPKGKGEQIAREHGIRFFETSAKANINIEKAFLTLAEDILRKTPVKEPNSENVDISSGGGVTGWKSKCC
UniProt A4D1S5: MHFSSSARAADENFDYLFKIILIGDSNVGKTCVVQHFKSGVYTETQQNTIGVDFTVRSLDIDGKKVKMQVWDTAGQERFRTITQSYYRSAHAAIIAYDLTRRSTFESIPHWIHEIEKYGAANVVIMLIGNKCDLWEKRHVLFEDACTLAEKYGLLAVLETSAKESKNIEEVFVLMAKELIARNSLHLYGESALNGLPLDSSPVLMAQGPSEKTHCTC
UniProt Q14964: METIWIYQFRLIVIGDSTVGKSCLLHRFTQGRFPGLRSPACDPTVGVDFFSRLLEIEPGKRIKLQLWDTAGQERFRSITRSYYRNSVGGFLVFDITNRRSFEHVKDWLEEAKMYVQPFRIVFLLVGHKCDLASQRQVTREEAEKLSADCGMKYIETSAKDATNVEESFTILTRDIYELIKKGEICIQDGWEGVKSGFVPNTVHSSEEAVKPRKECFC
UniProt Q86YS6: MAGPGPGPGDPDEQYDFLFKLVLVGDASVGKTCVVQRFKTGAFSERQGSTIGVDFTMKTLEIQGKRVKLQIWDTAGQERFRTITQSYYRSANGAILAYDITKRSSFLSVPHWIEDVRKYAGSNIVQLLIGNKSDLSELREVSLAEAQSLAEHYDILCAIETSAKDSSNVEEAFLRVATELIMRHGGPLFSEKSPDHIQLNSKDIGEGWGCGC
UniProt P20340: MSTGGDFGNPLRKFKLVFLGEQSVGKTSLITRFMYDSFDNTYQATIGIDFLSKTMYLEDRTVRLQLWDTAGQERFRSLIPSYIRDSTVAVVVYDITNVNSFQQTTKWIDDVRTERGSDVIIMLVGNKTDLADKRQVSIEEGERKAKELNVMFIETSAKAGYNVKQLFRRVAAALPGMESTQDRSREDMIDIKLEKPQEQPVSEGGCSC

Experiments:
Experiment in all cases: two-hybrid; Gal4-AD (pACT2-Oxr1) with Gal4-BD (pFBT9-Rab) in strain PJ96-4A; growth on SC-LW and QDO, 3 d, 30 °C
[1] = target: Rab1 GDP-restricted mutant (Gal4-BD, pFBT9)
[2] = target: Rab1 GTP-restricted mutant (Gal4-BD, pFBT9)
Rab1 WT (Gal4-BD, pFBT9) = target: Rab1 WT (Gal4-BD, pFBT9)
[3] = target: Rab10 GDP-restricted mutant (Gal4-BD, pFBT9) (UniProt P61026)
[4] = target: Rab10 GTP-restricted mutant (Gal4-BD, pFBT9) (UniProt P61026)
[5] = target: Rab19b GDP-restricted mutant (Gal4-BD, pFBT9) (UniProt A4D1S5)
[6] = target: Rab19b GTP-restricted mutant (Gal4-BD, pFBT9) (UniProt A4D1S5)
[7] = target: Rab39a GDP-restricted mutant (Gal4-BD, pFBT9) (UniProt Q14964)
[8] = target: Rab39a GTP-restricted mutant (Gal4-BD, pFBT9) (UniProt Q14964)
[9] = target: Rab43 GDP-restricted mutant (Gal4-BD, pFBT9) (UniProt Q86YS6)
[10] = target: Rab43 GTP-restricted mutant (Gal4-BD, pFBT9) (UniProt Q86YS6)
[11] = target: Rab6 GDP-restricted mutant (Gal4-BD, pFBT9) (UniProt P20340)
[12] = target: Rab6 GTP-restricted mutant (Gal4-BD, pFBT9) (UniProt P20340)
[13] = target: Rab8 GDP-restricted mutant (Gal4-BD, pFBT9)
[14] = target: Rab8 GTP-restricted mutant (Gal4-BD, pFBT9)
Rab8 WT (Gal4-BD, pFBT9) = target: Rab8 WT (Gal4-BD, pFBT9)

B1: Gal4-AD Oxr1 (pACT2-Oxr1) (protein, UniProt Q4KMM3-1 1-866)
chain: MSVSNLSWLKKKSQSVDITAPGFNPLGGAGKQAPQASKPPAPKTPIIEEEQNNSANTQKHPSRKSELKRFYTIDTGQKKTLDKKDGRRMSFQKPKGTIEYTVESRDSLNSIALKFDTTPNELVQLNKLFSRAVVTGQVLYVPDPEYVSSVESSPSLSPVSPLSPTSSEAEFDKTTTPDVAHPKEAPPASTVSGIRPARVVSSTSEEEEAFTEKFLKINCKYITIGKGTVSGVLLVTPNNIMFDPHKTDPLVQENGCEEYGIMCPMEEVMSAAMYKEILDSKIKESLPIELDQLSGRGSCHSKKATGVSAEDADPRARDQGNDSASTAPRSTEESLSEDAFTESELSPIREELLSSEPRQEKSSDASSESVQTVSQMEVQSLTATSEAANVPDRTSSNPGALSHETGLSGLETATKGGDKATESLQEVSGPKEQSTEVKGQDNQDSSHQESSLQQEAGEDSVSSGETVELKEKPAVLKDQQGQELKRDSETEVEELRKLWKTHSMQQAKQQRDTIQQVSQRESKHSSAAADAHGEGSSLLKEKRRHRLHKFLCLRVGKPMRKTFVSQASATMQQYAQRDKKHEYWFAVPQERTDHLYAFFIQWSPEIYAEDSGEYTREPGFIVVKKMDESEANEAPAGEAAAREWEVVSVAEYHRRIDALNTEELRTLCRRLQITTREDINSKQVAPAKADLEPESFRPNLSDPSELLLPDQIEKLTKHLPPRTIGYPWTLVYGTGKHGTSLKTLYRTMTGLDTPVLMVIKDSDGQVFGALASEPFKVSDGFYGTGETFVFTFCPEFEVFKWTGDNMFFIKGDMDSLAFGGGGGEFALWLDGDLYHGRSHSCKTFGNHTLSKKEDFFIQDIEIWAFE
- binding [1]: no binding
- binding [2]: binds
- binding (Rab1 WT (Gal4-BD, pFBT9)): binds weakly
- binding [3]: no binding
- binding [4]: binds
- binding [5]: no binding
- binding [6]: binds
- binding [7]: no binding
- binding [8]: binds
- binding [9]: no binding
- binding [10]: binds
- binding [11]: no binding
- binding [12]: binds
- binding [13]: no binding
- binding [14]: binds
- binding (Rab8 WT (Gal4-BD, pFBT9)): binds weakly
